{
  "source": "patent US8278262B2",
  "about": "(BioNTech AG, priority 2004, dated 2012)",
  "key": {"[1]": {"assay": "general procedure: Fmoc solid-phase peptide synthesis; NovaSyn TGR; HBTU/HOBt/DIEA; HATU/DIEA for first residue; DIC/HOBt for cysteine", "details": "whole synthesis, calculated using the program of the ABI 433 peptide synthesizer, scale 0.1 mmol, several disulfide bridges, sequence written open"}, "[2]": {"assay": "general procedure: Fmoc solid-phase peptide synthesis; NovaSyn TGR amide resin, 0.23 mmol/g; HBTU/HOBt/DIEA; HATU/DIEA for first residue; DIC/HOBt for cysteine", "details": "whole synthesis, scale of the general procedure 0.1 mmol, several disulfide bridges, sequence written open"}},
  "note": "Where a sequence shows no end group, the ends are not given.",
  "data": [
    {"sequence": "GVCPKILKKCRRDSDCPGACICRGNGYCG", "values": [
      {"measurement": "crude yield", "setting": "[1]", "value": 66.6, "unit": "%"},
      {"measurement": "difficulty met", "setting": "[2]", "value": "As products from incomplete coupling were detected: peak 1: missing Pro; peak 2: missing TyrCys"}
    ]}
  ]
}
